This passage reports binding results from PMC3254606.

By UniProt entry, the sequences of proteins in these tests, tags left out. Residues count along the entry.
UniProt P00519, residues 61-121: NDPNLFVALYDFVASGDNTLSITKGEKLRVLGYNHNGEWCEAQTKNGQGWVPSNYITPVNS
UniProt P54094: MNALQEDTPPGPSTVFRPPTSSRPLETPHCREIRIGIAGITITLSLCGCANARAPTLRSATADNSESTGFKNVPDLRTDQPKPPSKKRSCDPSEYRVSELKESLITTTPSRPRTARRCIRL

In the experiment the target is SH3 domain of Abl (UniProt P00519). Briefly: peptide or protein array; TransSignal SH3 Domain Array1 probed with apoptin; preliminary experiment, data not shown; called highly stringent.

These are yes or no findings as the source states them, for the method shown. Some entries that bind do so weakly or less than the wild type.

As to “apoptin (probe of the SH3 domain array) (from UniProt P54094 1-121)”, the binding entry is on record as “binds”.
